Reference: PubChem BioAssay AID1347423 (Functional Genomics Laboratory (NCATS/FGL), 2020)
Out of some 52,000 sequences screened, about 210 (0.4%) were called active.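 How the source made its calls: active means gene whose silencing raises cell survival under the drug, median off-target-corrected z-score across its silencing RNAs 2 or more; inactive means the rest.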 The list shows a part of the results.

test: Resistance to Poly (ADP-Ribose) Polymerase inhibitor: Gene Identification via Genome-wide siRNA Screen; details: mouse BRCA2 R2336H ES cells, olaparib, CellTiter-Glo viability; stronger effect = higher value
Procedure, shortened: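 Genome-wide siRNA screen (3 siRNAs/gene, 20 nM) in mouse ES cells carrying hypomorphic BRCA2 R2336H; olaparib 500 nM added 48 h post-transfection, CellTiter-Glo viability 72 h later. Normalized to plate-median negative control; MAD z-scores, gene median, seed-adjusted.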

Sequence	z-score
GCCAACUUGUACCAAACGCTT against Slc25a19	inactive: 0.12
GGAAUGAUGCCACAGAGGUTT against Sost	inactive: -2.77
GGUAAAAGGUGCCCUUCAATT against Olfr1056	inactive: 0.862
GCUUGCUCGGAGCUUAAGATT against Pik3c3	inactive: -1
GGAUAAUUUGGAUUUCGAGTT against Pcdhgb2	inactive: 1.77
GGCUACAGGGUCUUAUUUCTT against Alx3	inactive: 1.99
GGAUGCAGAUGCUGUGGACTT against S100a1	inactive: 1.41
GGACAUAUAUAGCAAGGAGTT against Polrmt	inactive: 0.538
GGCAUAUCCUCCUUAUCCATT against Dazl	inactive: 1.2
GGUGAGAAAUCGAAGCCCUTT against H1foo	inactive: 0.793
CCCGUUUGAGCUACUUCUUTT against Rgs2	inactive: 0.696
GCUAACCUUUGGAAUUGGATT against Rnf139	inactive: 1.26
GGUAUUCAUAAGAACACAGTT against S3-12	inactive: 1.22
AAAGCGCAUUCACAAAAAUTT against Olfr1453	inactive: 1.34
GCAGAAAAACCUGUGAAAATT against Pcnp	inactive: -1.06
GGAGAGGAAGACUUUGAAUTT against Pin1	inactive: 0.715
CCCUCUCUUUGGAUACACATT against Odz4	inactive: -1.5
GGAUGCUCAAGGAAAACAGTT against Lipl2	inactive: 0.106
AGAAAACUCGAGGUGACCATT against Znhit1	inactive: 1.09
CCAGAUGACAAAUUUACCCTT against Tdpoz4	inactive: 0.642
CCCAUCAGAUUGUUAUUAATT against Olfr652	inactive: 0.754
GCUGUUCCAUGUUAAAAAATT against Esm1	inactive: 0.675
GGGACUGGAAUUGACAUCCTT against Trpm4	inactive: 0.848
GCUUGGCCAUCAUUGGAGCTT against H2-Q6	inactive: -0.703
GGUCAGCAAAAGAGAUUCUTT against 9830124H08Rik	inactive: 0.391
GCUGGUGAUUCCUAAACUGTT against Oprd1	inactive: 0.413
GGUGCUGAUUACAGUAGAATT against Pcdhga10	inactive: 2.9
GGAGGGACAUGAUUUUGAATT against Pfkfb2	inactive: -0.00662
GGUUCUUGUUUCAUUUUGCTT against 9330140G23	inactive: 0.474
GGAGACUUUUGAAAUAGAATT against C8a	inactive: -0.768

Reprinted at random: two entries already listed.
Sequence	z-score
GGAGAGGAAGACUUUGAAUTT against Pin1	inactive: 0.715
GGUAAAAGGUGCCCUUCAATT against Olfr1056	inactive: 0.862
